PubChem BioAssay AID652272 – Drosophila RNAi Screening Center – 2013

Aim: 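Finding fly genes that regulate Hedgehog signal transduction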 (primary screen)
Cell system: Drosophila clone 8 (Cl8) cells
Knock-down reagent: long dsRNA against Drosophila genes
Read-out: 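Plate reader light from a firefly reporter under a ptc promoter fragment that responds to Hedgehog, with Renilla light as transfection reference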
Scale: firefly Hh reporter signal: higher = more ptc reporter light; Renilla reference signal: higher = more Renilla control light
Call rule: 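Hit when the z-score averaged over two replicates is under -2 or over +3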
Meaning of the calls: active = hit: reporter lowered or raised; inactive = not a hit
The deposit covers about 21,000 reagents; below is an unselected part of those with a known target gene and a result. Over the whole deposit, 503 (2.4%) got an active call. 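Raw plate light values, not normalised; calls rest on replicate z-scores that were not deposited; hits include reporter decreases as well as increases.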 The record does not give: the amount of reagent, the time to read-out.

Gasp [DRSC12349] gave firefly Hh reporter signal, replicate 1 = 1.33e5; firefly Hh reporter signal, replicate 2 = 74496; Renilla reference signal, replicate 1 = 4784; Renilla reference signal, replicate 2 = 2888; inactive.
CG13589 [DRSC04225] showed firefly Hh reporter signal, replicate 1 = 1.10e5; firefly Hh reporter signal, replicate 2 = 99627; Renilla reference signal, replicate 1 = 2771; Renilla reference signal, replicate 2 = 8204; inactive.
Knock-down of CG13829 [DRSC14679] resulted in: firefly Hh reporter signal, replicate 1 = 4.07e5; firefly Hh reporter signal, replicate 2 = 87937; Renilla reference signal, replicate 1 = 20666; Renilla reference signal, replicate 2 = 2618; inactive.
vls [DRSC02101] gave firefly Hh reporter signal, replicate 1 = 1.03e5; firefly Hh reporter signal, replicate 2 = 56370; Renilla reference signal, replicate 1 = 3696; Renilla reference signal, replicate 2 = 2476; inactive.
CG43059 [DRSC08916] scored firefly Hh reporter signal, replicate 1 = 1.40e5; firefly Hh reporter signal, replicate 2 = 2.71e5; Renilla reference signal, replicate 1 = 4141; Renilla reference signal, replicate 2 = 12090; inactive.
Depletion of RAF2 [DRSC10443] came out at: firefly Hh reporter signal, replicate 1 = 1.20e5; firefly Hh reporter signal, replicate 2 = 67995; Renilla reference signal, replicate 1 = 4485; Renilla reference signal, replicate 2 = 2329; inactive.
Against RAF2 [DRSC10454] the deposit lists firefly Hh reporter signal, replicate 1 = 89457; Renilla reference signal, replicate 1 = 5333; Renilla reference signal, replicate 2 = 2813; inactive.
prtp [DRSC19804] showed firefly Hh reporter signal, replicate 1 = 1.42e5; firefly Hh reporter signal, replicate 2 = 5.99e5; firefly Hh reporter signal, replicate 3 = 1.07e5; Renilla reference signal, replicate 1 = 3321; Renilla reference signal, replicate 2 = 5939; inactive.
Ktch [DRSC15094] gave firefly Hh reporter signal, replicate 1 = 93552; firefly Hh reporter signal, replicate 2 = 1.33e5; Renilla reference signal, replicate 1 = 3305; Renilla reference signal, replicate 2 = 3729; inactive.
CG32121 [DRSC09265] showed firefly Hh reporter signal, replicate 1 = 1.99e5; Renilla reference signal, replicate 1 = 3912; inactive.
With knock-down of eIF4EHP [DRSC13653], the record shows firefly Hh reporter signal, replicate 1 = 56028; firefly Hh reporter signal, replicate 2 = 2.43e5; Renilla reference signal, replicate 1 = 14481; Renilla reference signal, replicate 2 = 6378; inactive.
Knock-down of eIF4EHP [DRSC14265] resulted in: firefly Hh reporter signal, replicate 1 = 1.12e5; firefly Hh reporter signal, replicate 2 = 63162; Renilla reference signal, replicate 1 = 4630; Renilla reference signal, replicate 2 = 2698; inactive.
After knock-down of Sodq [DRSC15924], the record shows firefly Hh reporter signal, replicate 1 = 5.32e5; firefly Hh reporter signal, replicate 2 = 1.19e5; Renilla reference signal, replicate 1 = 28589; Renilla reference signal, replicate 2 = 2724; inactive.
Flad1 [DRSC19898] scored firefly Hh reporter signal, replicate 1 = 1.01e5; firefly Hh reporter signal, replicate 2 = 66362; Renilla reference signal, replicate 1 = 2266; Renilla reference signal, replicate 2 = 1632; inactive.
Depletion of mid [DRSC02977] gave: firefly Hh reporter signal, replicate 1 = 1.13e5; firefly Hh reporter signal, replicate 2 = 6.62e5; firefly Hh reporter signal, replicate 3 = 75707; Renilla reference signal, replicate 1 = 1888; Renilla reference signal, replicate 2 = 34114; inactive.
After knock-down of CG4301 [DRSC19886] the results were firefly Hh reporter signal, replicate 1 = 45293; firefly Hh reporter signal, replicate 2 = 2.47e5; Renilla reference signal, replicate 1 = 1194; Renilla reference signal, replicate 2 = 9030; inactive.
For mh [DRSC20168] the deposit lists firefly Hh reporter signal, replicate 1 = 47040; firefly Hh reporter signal, replicate 2 = 1.59e5; Renilla reference signal, replicate 1 = 953; Renilla reference signal, replicate 2 = 6538; inactive.
Depletion of CG6138 [DRSC02933] resulted in: firefly Hh reporter signal, replicate 1 = 75974; firefly Hh reporter signal, replicate 2 = 58395; Renilla reference signal, replicate 1 = 1846; Renilla reference signal, replicate 2 = 5341; inactive.
Corp [DRSC17771] scored firefly Hh reporter signal, replicate 1 = 95268; firefly Hh reporter signal, replicate 2 = 64407; Renilla reference signal, replicate 1 = 2512; Renilla reference signal, replicate 2 = 1403; inactive.
Depletion of CG11069 [DRSC14289] resulted in: firefly Hh reporter signal, replicate 1 = 77591; firefly Hh reporter signal, replicate 2 = 82368; Renilla reference signal, replicate 1 = 3312; Renilla reference signal, replicate 2 = 3296; inactive.
hb [DRSC16963] gave firefly Hh reporter signal, replicate 1 = 91691; firefly Hh reporter signal, replicate 2 = 98790; Renilla reference signal, replicate 1 = 3865; Renilla reference signal, replicate 2 = 3733; inactive.
CG5274 [DRSC11774] gave firefly Hh reporter signal, replicate 1 = 76771; firefly Hh reporter signal, replicate 2 = 90029; Renilla reference signal, replicate 1 = 3500; Renilla reference signal, replicate 2 = 3936; inactive.
For Pgant8 [DRSC10801], the values are firefly Hh reporter signal, replicate 1 = 1.09e5; Renilla reference signal, replicate 1 = 4100; Renilla reference signal, replicate 2 = 3011; inactive.
With knock-down of CG4375 [DRSC00653], the record shows firefly Hh reporter signal, replicate 1 = 1.17e5; firefly Hh reporter signal, replicate 2 = 67256; Renilla reference signal, replicate 1 = 2593; Renilla reference signal, replicate 2 = 1600; inactive.
For Cyp6g2 [DRSC07387], the values are firefly Hh reporter signal, replicate 1 = 78699; firefly Hh reporter signal, replicate 2 = 37168; Renilla reference signal, replicate 1 = 2065; Renilla reference signal, replicate 2 = 3156; inactive.
With knock-down of CG9689 [DRSC18440] the results were firefly Hh reporter signal, replicate 1 = 86096; firefly Hh reporter signal, replicate 2 = 71030; Renilla reference signal, replicate 1 = 2194; Renilla reference signal, replicate 2 = 1708; inactive.
Depletion of CG31036 [DRSC15055] came out at: firefly Hh reporter signal, replicate 1 = 1.45e5; firefly Hh reporter signal, replicate 2 = 1.37e5; Renilla reference signal, replicate 1 = 6800; Renilla reference signal, replicate 2 = 4832; inactive.
After knock-down of CG31036 [DRSC15057], the record shows firefly Hh reporter signal, replicate 1 = 82677; firefly Hh reporter signal, replicate 2 = 1.03e5; Renilla reference signal, replicate 1 = 3249; Renilla reference signal, replicate 2 = 3097; inactive.

No new results follow: an excerpt of the list.
CG11069 [DRSC14289] — firefly Hh reporter signal, replicate 1 = 77591; firefly Hh reporter signal, replicate 2 = 82368; Renilla reference signal, replicate 1 = 3312; Renilla reference signal, replicate 2 = 3296; Call = inactive
hb [DRSC16963] — firefly Hh reporter signal, replicate 1 = 91691; firefly Hh reporter signal, replicate 2 = 98790; Renilla reference signal, replicate 1 = 3865; Renilla reference signal, replicate 2 = 3733; Call = inactive
CG5274 [DRSC11774] — firefly Hh reporter signal, replicate 1 = 76771; firefly Hh reporter signal, replicate 2 = 90029; Renilla reference signal, replicate 1 = 3500; Renilla reference signal, replicate 2 = 3936; Call = inactive
Pgant8 [DRSC10801] — firefly Hh reporter signal, replicate 1 = 1.09e5; Renilla reference signal, replicate 1 = 4100; Renilla reference signal, replicate 2 = 3011; Call = inactive
CG4375 [DRSC00653] — firefly Hh reporter signal, replicate 1 = 1.17e5; firefly Hh reporter signal, replicate 2 = 67256; Renilla reference signal, replicate 1 = 2593; Renilla reference signal, replicate 2 = 1600; Call = inactive
